The record followed here is patent US20100184668A1.

Sequences of proteins named here, by UniProt entry; tags and fusion partners are left off. Residues count along the entry.
UniProt P16671, residues 67-157: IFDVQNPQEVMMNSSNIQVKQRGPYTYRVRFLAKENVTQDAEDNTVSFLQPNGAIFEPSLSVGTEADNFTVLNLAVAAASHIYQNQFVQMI
UniProt P07996, residues 19-1170: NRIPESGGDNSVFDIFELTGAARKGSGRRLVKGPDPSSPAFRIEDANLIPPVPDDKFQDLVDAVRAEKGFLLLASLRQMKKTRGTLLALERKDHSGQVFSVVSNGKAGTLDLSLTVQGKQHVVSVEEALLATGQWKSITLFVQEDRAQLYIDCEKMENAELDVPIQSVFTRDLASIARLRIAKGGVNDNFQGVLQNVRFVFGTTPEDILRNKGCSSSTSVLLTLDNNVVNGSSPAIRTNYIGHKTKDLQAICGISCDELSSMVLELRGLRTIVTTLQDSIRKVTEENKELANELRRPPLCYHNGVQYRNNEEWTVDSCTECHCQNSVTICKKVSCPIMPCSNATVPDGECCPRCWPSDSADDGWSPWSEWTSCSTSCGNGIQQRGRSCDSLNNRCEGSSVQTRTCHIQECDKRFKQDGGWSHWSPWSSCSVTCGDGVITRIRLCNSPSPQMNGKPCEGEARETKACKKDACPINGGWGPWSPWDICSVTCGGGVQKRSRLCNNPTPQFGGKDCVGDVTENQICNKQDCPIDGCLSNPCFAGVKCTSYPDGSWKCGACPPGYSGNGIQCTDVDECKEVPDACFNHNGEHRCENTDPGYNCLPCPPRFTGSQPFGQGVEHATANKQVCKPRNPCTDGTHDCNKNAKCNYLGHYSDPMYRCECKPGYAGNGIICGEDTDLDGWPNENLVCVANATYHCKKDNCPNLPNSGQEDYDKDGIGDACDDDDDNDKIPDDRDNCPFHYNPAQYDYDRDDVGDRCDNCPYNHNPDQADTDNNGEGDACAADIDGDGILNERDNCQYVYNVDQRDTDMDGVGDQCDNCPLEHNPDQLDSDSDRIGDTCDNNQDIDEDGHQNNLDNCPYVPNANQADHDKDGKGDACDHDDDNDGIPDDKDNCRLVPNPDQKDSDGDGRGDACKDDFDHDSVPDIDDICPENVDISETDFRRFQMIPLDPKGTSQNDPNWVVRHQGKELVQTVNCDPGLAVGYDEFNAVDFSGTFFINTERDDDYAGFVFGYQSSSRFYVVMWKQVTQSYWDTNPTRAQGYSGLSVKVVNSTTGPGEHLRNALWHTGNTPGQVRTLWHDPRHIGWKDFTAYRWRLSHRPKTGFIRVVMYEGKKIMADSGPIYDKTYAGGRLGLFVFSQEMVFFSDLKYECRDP

No constants are given. Whether binding was seen depends on the method and setting. In cells and extracts the contact can be indirect. Some binding calls cover weakened binding; strength is not graded here. For some assays here: Tags and fused reporters may be left off the sequences shown.

Experiment [1] addresses GST-CD36 fusion protein spanning amino acids 67-157 of CD36 (UniProt P16671). In words: GST pull-down, Western blot (FIG. 5C). Background: In western blotting, separated proteins are transferred to a membrane and probed.
The target is the same in experiment [2]. In words: GST pull-down on glutathione sepharose beads from conditioned medium of LN229 clone C9, Western blot.
Experiment [3] has the same target. In words: GST pull-down (FIGS. 5A-5C).
Experiment [4] shares this target. In words: GST pull-down on glutathione sepharose beads from conditioned medium, Western blot.

For the molecule “thrombospondin-1 (TSP1), secreted into conditioned medium of LN229 clone C9 (from UniProt P07996 19-1170) (ligand)”, the binding entry in experiment [1] and in experiment [2] was “binds” in each case.

B1: Vasculostatin 120 (Vstat120), myc/his-tagged, secreted into conditioned medium (protein, not shown: small tags and cut ends)
chain: GADAGPGPEPCATLVQGKFFGYFSAAAVFPANASRCSWTLRNPDPRRYTLYMKVAKAPVPCSGPGRVRTYQFDSFLESTRTYLGVESFDEVLRLCDPSAPLAFLQASKQFLQMRRQQPPQHDGLRPRAGPPGPTDDFSVEYLVVGNRNPSRAACQMLCRWLDACLAGSRSSHPCGIMQTPCACLGGEAGGPAAGPLAPRGDVCLRDAVAGGPENCLTSLTQDRGGHGATGGWKLWSLWGECTRDCGGGLQTRTRTCLPAPGVEGGGCEGVLEEGRQCNREACGPAGRTSSRSQSLRSTDARRREELGDELQQFGFPAPQTGDPAAEEWSPWSVCSSTCGEGWQTRTRFCVSSSYSTQCSGPLREQRLCNNSAVCPVHGAWDEWSPWSLCSSTCGRGFRDRTRTCRPPQFGGNPCEGPEKQTKFCNIALCPGRAVDGNWNEWSSWSACSASCSQGRQQRTRECNGPSYGGAECQGHWVETRDCFLQQCPVDGKWQAWASWGSCSVTCGAGSQRRERVCSGPFFGGAACQGPQDEYRQCGTQRCPEPHEICDEDNFGAVIWKETPAGEVAAVRCPRNATGLILRRCELDEEGIAYWEPPTYIRCVSIDYRNIQMMTREHLAKAQRGLPGEGVSEVIQTLVEISQDGTSYSGDLLSTIDVLRNMTEIFRRAYYSPTPGDVQNFVQILSNLLAEENRDKWEEAQLAGPNAKELFRLVEDFVDVIGFRMKDLRDAYQVTDNLVLSIHKLPASGATDISFPMKGWRATGDWAKVPEDRVTVSKSVFSTGLTEADEASVFVVGTVLYRNLGSFLALQRNTTVLNSKVISVTVKPPPRSLRTPLEIEFAHMYNGTTNQTCILWDETDVPSSSAPPQLGPWSWRGCRTVPLDALRTRCLCDRL
B1: the binding result in experiment [3], in experiment [1] and in experiment [4] was “binds” throughout.
